In patent publication US20080249042A1, “All-Trans-Retinol: All-Trans-13,14-Dihydroretinol Saturase and Methods of Its Use” (UNIVERSITY OF WASHINGTON, priority 2004, published 2008):
For at least one compound, name, drawing or mass did not settle the structure.

System: RAR/RXR heterodimers
Assay: F9-RARE-lacZ DR5 RARE reporter cell assay
Conditions: 24 h, β-galactosidase activity

Q: For `CC1=C(/C=C/C(C)=C/C=C/C(C)CC(=O)O)C(C)(C)CCC1` (stereo not drawn) [all-trans-DRA, all-trans-13,14-dihydroretinoic acid], which “Concentration giving induction of DR5 reporter cells of similar magnitude” value is on record?
A: Its value is 10−7 M.
